The list shows a part of the results.
Assays:
Assay in all cases: log2 fold change, soluble protein after heating vs DMSO (PISA); higher = thermal stabilisation; K562 cells, 10 uM, 30 min; active = over 0.2 and 3.5 SD of the protein, either way, in both replicates (recomputed)
[1] = compound: CC[C@@H]1C(=O)N(C)c2cnc(Nc3ccc(C(=O)NC4CCN(C)CC4)cc3OC)nc2N1C1CCCC1
How it was run: (§1)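 Values are thermal stability changes relative to control samples and are taken from duplicates. They are stated as log2 fold changes. Before quantification by TMTpro 16plex LC-MS/MS with equalised channel sums, K562 cells at 2×10^6 cells/mL were treated with 10 μM compound for 30 min, heated in aliquots for 3 min across 48°C-58°C, pooled, extracted in PBS with 0.5% NP-40 at 4°C, and centrifuged at 21,000xg for 90 min to give the soluble supernatant.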

Chains of the proteins cited; added tags and fusions are not shown. Lines headed by an entry give the natural chain unless they say otherwise; changes in a name come on top.
UniProt O43521, whole entry, looked up: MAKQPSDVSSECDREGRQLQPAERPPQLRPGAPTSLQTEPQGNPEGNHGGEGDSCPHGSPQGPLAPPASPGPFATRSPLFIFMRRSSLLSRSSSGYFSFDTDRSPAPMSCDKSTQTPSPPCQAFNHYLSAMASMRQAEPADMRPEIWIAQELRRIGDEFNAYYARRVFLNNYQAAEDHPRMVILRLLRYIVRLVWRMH
UniProt Q8TBE0: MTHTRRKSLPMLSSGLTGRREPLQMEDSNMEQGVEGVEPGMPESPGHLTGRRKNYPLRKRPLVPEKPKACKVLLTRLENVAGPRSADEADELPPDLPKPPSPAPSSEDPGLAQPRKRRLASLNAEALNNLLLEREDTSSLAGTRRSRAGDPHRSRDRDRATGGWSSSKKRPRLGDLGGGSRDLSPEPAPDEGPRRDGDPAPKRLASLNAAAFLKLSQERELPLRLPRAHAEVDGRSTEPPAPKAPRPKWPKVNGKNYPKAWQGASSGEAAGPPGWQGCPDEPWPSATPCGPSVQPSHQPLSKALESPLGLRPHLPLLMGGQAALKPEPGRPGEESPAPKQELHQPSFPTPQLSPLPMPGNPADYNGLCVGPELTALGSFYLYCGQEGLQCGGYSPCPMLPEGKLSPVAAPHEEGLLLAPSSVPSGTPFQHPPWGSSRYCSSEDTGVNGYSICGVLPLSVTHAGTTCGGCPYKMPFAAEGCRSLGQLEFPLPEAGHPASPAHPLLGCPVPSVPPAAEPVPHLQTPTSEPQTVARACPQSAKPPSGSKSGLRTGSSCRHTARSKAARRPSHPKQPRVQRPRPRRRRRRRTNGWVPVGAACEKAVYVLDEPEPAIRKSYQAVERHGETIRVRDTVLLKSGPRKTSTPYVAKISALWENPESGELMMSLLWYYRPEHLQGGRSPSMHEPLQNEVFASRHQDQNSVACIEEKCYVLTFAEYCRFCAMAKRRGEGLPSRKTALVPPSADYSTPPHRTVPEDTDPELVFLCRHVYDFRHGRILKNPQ
UniProt Q9HCU9: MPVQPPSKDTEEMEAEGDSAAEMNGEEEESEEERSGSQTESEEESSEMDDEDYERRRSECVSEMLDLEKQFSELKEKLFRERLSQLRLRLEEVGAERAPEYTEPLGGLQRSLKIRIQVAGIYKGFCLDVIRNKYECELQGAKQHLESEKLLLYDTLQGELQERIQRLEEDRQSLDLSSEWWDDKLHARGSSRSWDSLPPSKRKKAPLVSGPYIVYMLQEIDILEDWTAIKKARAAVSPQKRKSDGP
UniProt Q9H6S1, whole entry, looked up: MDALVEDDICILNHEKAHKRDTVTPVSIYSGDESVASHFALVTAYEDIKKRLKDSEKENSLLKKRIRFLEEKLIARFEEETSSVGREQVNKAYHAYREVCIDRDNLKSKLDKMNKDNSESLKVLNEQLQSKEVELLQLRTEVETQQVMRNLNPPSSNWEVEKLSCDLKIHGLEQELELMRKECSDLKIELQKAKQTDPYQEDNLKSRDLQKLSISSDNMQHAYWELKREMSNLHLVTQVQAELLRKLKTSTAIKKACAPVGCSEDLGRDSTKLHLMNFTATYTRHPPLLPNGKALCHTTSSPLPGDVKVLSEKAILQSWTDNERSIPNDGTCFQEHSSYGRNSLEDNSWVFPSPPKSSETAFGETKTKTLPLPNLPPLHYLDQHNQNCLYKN
UniProt Q9NQS1: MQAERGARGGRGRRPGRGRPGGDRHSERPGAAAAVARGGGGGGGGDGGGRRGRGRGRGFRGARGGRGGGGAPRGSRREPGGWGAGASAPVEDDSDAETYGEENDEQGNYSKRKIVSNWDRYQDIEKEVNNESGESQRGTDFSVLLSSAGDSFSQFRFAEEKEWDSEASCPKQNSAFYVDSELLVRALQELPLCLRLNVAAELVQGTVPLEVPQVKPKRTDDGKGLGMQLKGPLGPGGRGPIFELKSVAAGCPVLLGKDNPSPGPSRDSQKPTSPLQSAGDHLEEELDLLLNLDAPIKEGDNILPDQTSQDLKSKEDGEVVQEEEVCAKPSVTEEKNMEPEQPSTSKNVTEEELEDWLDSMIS
UniProt Q14CW9: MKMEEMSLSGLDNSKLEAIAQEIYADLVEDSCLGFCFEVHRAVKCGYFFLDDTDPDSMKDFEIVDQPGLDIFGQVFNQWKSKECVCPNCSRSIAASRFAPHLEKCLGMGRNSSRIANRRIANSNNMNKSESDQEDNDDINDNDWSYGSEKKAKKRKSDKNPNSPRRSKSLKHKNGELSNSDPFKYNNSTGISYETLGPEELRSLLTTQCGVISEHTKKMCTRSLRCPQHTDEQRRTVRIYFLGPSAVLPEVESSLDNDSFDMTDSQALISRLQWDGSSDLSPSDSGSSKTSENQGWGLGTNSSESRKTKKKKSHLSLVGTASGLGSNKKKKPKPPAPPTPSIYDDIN
UniProt P54252: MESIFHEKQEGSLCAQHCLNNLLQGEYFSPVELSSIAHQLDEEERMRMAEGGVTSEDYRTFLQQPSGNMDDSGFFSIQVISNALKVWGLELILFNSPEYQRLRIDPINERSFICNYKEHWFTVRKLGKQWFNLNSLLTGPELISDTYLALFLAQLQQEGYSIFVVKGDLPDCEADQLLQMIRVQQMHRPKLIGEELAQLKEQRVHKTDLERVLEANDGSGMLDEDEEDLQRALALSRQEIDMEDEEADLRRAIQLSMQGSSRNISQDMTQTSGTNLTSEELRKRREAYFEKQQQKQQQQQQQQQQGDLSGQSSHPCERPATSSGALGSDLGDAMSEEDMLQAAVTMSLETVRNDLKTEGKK
UniProt Q9NWD9: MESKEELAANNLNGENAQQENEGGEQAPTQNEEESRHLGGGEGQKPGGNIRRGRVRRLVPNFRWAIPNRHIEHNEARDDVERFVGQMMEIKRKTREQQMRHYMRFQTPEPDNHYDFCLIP
UniProt O60238, whole entry, looked up: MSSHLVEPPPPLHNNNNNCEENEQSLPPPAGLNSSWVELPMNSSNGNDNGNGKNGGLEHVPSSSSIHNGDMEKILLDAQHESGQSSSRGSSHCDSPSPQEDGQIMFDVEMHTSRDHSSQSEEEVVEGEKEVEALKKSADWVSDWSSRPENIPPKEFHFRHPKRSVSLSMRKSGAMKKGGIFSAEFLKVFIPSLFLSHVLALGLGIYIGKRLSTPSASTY
UniProt Q15059, whole entry, looked up: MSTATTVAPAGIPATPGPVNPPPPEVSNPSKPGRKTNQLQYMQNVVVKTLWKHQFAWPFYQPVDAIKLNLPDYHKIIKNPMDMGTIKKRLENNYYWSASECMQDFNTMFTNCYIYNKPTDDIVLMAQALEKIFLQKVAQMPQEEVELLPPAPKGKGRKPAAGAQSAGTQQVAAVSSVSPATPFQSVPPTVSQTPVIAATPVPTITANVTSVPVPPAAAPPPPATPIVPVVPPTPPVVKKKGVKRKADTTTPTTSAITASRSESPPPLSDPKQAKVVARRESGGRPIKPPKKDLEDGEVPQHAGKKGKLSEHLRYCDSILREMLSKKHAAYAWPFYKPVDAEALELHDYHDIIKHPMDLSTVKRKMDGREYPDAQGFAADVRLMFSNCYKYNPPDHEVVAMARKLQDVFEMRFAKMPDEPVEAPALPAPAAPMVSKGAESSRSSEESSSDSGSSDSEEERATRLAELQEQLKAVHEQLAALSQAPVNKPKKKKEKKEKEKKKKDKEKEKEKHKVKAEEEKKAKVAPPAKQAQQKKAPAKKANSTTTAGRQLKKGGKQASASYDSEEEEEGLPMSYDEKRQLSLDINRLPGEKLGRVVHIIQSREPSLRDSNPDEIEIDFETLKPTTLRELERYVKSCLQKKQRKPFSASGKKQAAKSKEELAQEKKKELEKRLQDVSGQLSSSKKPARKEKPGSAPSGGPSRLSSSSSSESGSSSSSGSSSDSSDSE
UniProt Q96GD4, whole entry, looked up: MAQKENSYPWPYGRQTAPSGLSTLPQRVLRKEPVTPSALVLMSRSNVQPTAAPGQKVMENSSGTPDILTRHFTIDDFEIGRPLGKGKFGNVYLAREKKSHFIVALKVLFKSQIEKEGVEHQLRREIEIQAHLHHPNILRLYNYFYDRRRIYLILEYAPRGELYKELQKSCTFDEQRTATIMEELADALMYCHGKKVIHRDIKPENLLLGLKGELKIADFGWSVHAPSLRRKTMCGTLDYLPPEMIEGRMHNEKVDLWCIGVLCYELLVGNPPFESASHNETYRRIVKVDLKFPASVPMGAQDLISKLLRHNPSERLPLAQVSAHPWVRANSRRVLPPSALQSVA
UniProt P11274: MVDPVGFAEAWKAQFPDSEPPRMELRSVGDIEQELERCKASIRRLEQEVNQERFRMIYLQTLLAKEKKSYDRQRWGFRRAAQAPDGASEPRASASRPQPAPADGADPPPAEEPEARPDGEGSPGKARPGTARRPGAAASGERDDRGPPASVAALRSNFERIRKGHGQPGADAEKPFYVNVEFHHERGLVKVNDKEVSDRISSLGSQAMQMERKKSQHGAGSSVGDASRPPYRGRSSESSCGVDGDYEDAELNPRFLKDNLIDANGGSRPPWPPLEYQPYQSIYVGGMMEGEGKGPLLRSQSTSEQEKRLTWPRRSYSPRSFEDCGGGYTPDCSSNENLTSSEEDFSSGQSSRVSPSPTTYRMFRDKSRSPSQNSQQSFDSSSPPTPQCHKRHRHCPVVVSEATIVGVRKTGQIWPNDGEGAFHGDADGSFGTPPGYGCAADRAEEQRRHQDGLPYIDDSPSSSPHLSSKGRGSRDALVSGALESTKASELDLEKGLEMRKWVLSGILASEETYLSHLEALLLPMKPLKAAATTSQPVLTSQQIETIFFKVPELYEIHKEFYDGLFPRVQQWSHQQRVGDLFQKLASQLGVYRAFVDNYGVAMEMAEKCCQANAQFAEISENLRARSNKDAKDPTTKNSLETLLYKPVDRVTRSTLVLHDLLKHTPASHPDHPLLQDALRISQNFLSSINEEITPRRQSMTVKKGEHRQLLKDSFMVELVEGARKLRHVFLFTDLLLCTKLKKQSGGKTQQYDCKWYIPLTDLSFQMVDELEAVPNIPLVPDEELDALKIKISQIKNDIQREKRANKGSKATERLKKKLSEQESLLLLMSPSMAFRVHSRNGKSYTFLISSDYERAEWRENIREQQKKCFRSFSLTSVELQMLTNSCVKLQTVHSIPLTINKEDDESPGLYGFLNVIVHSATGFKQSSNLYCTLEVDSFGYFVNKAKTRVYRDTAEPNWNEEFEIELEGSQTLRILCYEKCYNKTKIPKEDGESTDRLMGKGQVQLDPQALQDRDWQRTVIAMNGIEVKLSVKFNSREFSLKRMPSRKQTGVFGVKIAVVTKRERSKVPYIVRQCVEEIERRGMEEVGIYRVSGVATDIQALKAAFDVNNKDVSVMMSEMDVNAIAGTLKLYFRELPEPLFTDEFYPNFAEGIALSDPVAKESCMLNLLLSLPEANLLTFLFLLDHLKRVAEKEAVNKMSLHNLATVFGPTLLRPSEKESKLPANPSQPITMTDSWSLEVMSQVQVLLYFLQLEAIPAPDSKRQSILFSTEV
UniProt Q9NP55: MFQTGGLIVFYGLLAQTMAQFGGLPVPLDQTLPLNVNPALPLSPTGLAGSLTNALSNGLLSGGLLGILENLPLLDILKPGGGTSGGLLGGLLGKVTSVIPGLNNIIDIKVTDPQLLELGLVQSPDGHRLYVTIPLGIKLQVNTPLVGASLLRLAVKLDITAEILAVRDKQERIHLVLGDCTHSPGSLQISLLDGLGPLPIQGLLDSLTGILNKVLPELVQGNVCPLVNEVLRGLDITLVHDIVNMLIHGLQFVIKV
UniProt Q7Z569: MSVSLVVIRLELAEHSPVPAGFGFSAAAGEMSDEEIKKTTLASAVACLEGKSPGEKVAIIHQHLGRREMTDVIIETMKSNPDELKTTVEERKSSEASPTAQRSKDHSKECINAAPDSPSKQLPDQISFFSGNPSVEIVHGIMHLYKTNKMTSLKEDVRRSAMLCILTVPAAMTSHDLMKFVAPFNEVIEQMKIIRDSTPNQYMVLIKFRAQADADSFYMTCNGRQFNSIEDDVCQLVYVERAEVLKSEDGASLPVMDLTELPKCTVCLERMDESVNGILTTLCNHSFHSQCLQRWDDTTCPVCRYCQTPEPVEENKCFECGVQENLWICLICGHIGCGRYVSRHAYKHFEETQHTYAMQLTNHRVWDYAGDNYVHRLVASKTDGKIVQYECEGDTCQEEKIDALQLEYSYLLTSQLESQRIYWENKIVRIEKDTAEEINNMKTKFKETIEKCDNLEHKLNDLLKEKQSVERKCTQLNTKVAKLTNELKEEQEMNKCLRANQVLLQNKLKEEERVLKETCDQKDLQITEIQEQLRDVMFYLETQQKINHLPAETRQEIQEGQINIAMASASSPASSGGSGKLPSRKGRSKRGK

[2] = compound: CC[C@H](C)N1C=C(C2=C(C=C(C=C21)C3=CN=C(C=C3)N4CCNCC4)C(=O)NCC5=C(C=C(NC5=O)C)C)C
How it was run: as §1

[3] = compound: CC[C@H](C)[C@@H](C(=O)N[C@@H]([C@@H](C)O)C(=O)N[C@@H](CC(C)C)C(=O)[C@]1(CO1)C)NC(=O)[C@H]([C@@H](C)CC)N(C)C(=O)C [epoxomicin]
How it was run: as §1

[4] = compound: CCn1c(C(=O)N(C2CC2)C2CC2)cc2c3c(ncn3C)c(Nc3cc(C)n(C)n3)nc21
How it was run: as §1

[5] = compound: CCn1cc(-c2ccnc3[nH]c(-c4cccc(CN(C)C)c4)cc23)c(-c2ccc(NC(=O)N(C)C)cc2)n1
How it was run: as §1

[6] = compound: CN(C)CC(=O)Nc1ccc2[nH]c(=O)c3ccccc3c2c1
How it was run: as §1

[7] = compound: CN1C2=C(C3=C1C(=O)N(N=C3)CC4=CC(=CC=C4)N)SC(=C2)S(=O)C
How it was run: as §1

[8] = compound: CN1CCC(CNc2ccc3ncc(-c4cccc(OC(F)(F)F)c4)n3n2)CC1
How it was run: as §1

[9] = compound: CN1CCN(CCOc2cc(OC3CCOCC3)c3c(Nc4c(Cl)ccc5c4OCO5)ncnc3c2)CC1 [saracatinib]
How it was run: as §1

[10] = compound: CN1CCN(c2nc(C3=C(c4c[nH]c5ccccc45)C(=O)NC3=O)c3ccccc3n2)CC1 [sotrastaurin]
How it was run: as §1

[11] = compound: CN1CC[C@H](c2c(O)cc(O)c3c(=O)cc(-c4ccccc4Cl)oc23)[C@H](O)C1 [alvocidib]
How it was run: as §1

[12] = compound: CN1CCc2c(c3ccccc3n2Cc2ccc(C(=O)NO)cc2)C1 [Tubastatin A]
How it was run: as §1

[13] = compound: CNC(=O)C1=CC=CC=C1NC2=NC(=NC=C2Cl)NC3=C(C=C(C=C3)N4CCOCC4)OC
How it was run: as §1

[14] = compound: CNC(=O)c1ccc(Nc2ncc(C(F)(F)F)c(NCc3nccnc3N(C)S(C)(=O)=O)n2)cc1 [defactinib]
How it was run: as §1

[15] = compound: CNCc1ccc(-c2[nH]c3cc(F)cc4c3c2CCNC4=O)cc1 [rucaparib]
How it was run: as §1

[16] = compound: CNc1nc(-c2ccc3c(N)n[nH]c3c2)cc(N2C[C@@H](C(=O)NC3CCCCC3)CC[C@H]2C)n1
How it was run: as §1

[17] = compound: COC(=O)N[C@@H](C)CNc1nccc(-c2cn(C(C)C)nc2-c2cc(Cl)cc(NS(C)(=O)=O)c2F)n1 [encorafenib]
How it was run: as §1

[18] = compound: COC(=O)[C@H](CCSC)NC(=O)C1=C(C=C(C=C1)NC[C@H](CS)N)C2=CC=CC=C2
How it was run: as §1

[19] = compound: CC[C@@H]1C(=O)N(C)c2cnc(Nc3ccc(C(=O)N[C@H]4CC[C@H](N5CCN(CC6CC6)CC5)CC4)cc3OC)nc2N1C(C)C [volasertib]
How it was run: as §1

[20] = compound: CN(CCOC1=CC=C(C=C1)C[C@H]2C(=O)NC(=O)S2)C3=CC=CC=N3 (racemic) [rosiglitazone]
How it was run: as §1

Measured: log2 fold change

BCL2L11 (UniProt O43521)
inactive: [1] -0.111 | [2] -0.183 | [3] -0.102 | [4] 0.014 | [5] -0.174 | [6] -0.024 | [7] -0.063 | [8] -0.086 | [9] 0.068 | [10] -0.142 | [11] 0.09 | [12] -0.057 | [13] -0.025 | [14] -0.013 | [15] -0.028 | [16] -0.123 | [17] 0.035 | [18] 0.087

BAZ1B (UniProt Q9UIG0)
inactive: [1] -0.099 | [2] 0.094 | [5] 0.131 | [6] 0.013 | [8] -0.089 | [10] -0.02 | [11] 0.038 | [14] -0.006 | [15] -0.013 | [17] 0.103 | [18] 0.023

BRD8 isoform 2 (UniProt Q9H0E9)
active: [6] 0.432
inactive: [1] 0.036 | [19] 0.025 | [3] -0.105 | [5] 0.219 | [7] 0.087 | [8] -0.327 | [9] -0.06 | [10] 0.058 | [12] -0.296 | [13] 0 | [14] -0.064 | [15] -0.015 | [16] -0.021 | [17] 0.028 | [18] 0.145

BPNT1 (UniProt A6NF51)
inactive: [1] 0.01 | [3] 0.105 | [4] 0.238 | [6] 0.036 | [20] 0.162 | [12] -0.034 | [13] -0.14 | [14] 0 | [15] -0.06 | [17] 0.047 | [18] -0.019

BAHD1 (UniProt Q8TBE0)
inactive: [1] -0.017 | [19] -0.018 | [2] 0.054 | [4] -0.042 | [5] -0.128 | [8] -0.02 | [13] -0.061 | [15] -0.133 | [17] 0.229

BRMS1 (UniProt Q9HCU9)
inactive: [1] -0.034 | [3] -0.018 | [5] 0.144 | [7] -0.092 | [8] -0.124 | [9] -0.185 | [12] 0.001 | [15] -0.017 | [16] 0.007 | [17] 0.106

AZI2 (UniProt Q9H6S1)
active: [13] 0.453
inactive: [1] -0.021 | [2] -0.063 | [6] 0.062 | [10] -0.046 | [12] -0.078 | [14] 0.018 | [15] -0.12 | [17] 0.012 | [18] -0.093

AVEN (UniProt Q9NQS1)
inactive: [1] 0.07 | [19] 0.031 | [3] 0.015 | [4] 0.062 | [5] 0.004 | [6] -0.059 | [20] -0.027 | [7] 0.044 | [8] -0.104 | [9] 0.016 | [11] 0.137 | [13] -0.088 | [14] -0.037 | [15] -0.002 | [16] -0.055 | [17] -0.175 | [18] 0.054

B4GALT7 (UniProt Q9UBV7)
inactive: [1] 0.067 | [19] -0.085 | [3] 0.051 | [4] -0.064 | [5] -0.035 | [6] -0.06 | [20] 0.053 | [7] -0.117 | [8] -0.23 | [9] -0.029 | [10] 0 | [11] 0.051 | [12] 0.038 | [13] 0.061 | [14] -0.015 | [15] 0.054 | [16] -0.097 | [17] 0.058 | [18] -0.023

ATXN7L3 isoform 2 (UniProt Q14CW9)
active: [15] 0.669
inactive: [1] -0.042 | [2] -0.166 | [10] 0.098 | [13] -0.038 | [17] 0

ATXN3 isoform 1 (UniProt P54252)
inactive: [1] -0.371 | [2] 0.099 | [5] -0.016 | [6] -0.083 | [8] -0.015 | [12] 0.138 | [13] -0.03 | [14] -0.119 | [15] -0.015 | [17] 0.085 | [18] 0.018
active: [19] -0.401

BEX4 (UniProt Q9NWD9)
inactive: [1] 0.146 | [4] -0.062 | [20] 0.125 | [7] -0.005 | [9] 0.221 | [10] -0.137 | [11] -0.105 | [13] 0.098 | [15] 0.046 | [16] -0.042 | [17] 0.076

BNIP2 (UniProt H7C096)
inactive: [1] -0.085 | [4] -0.048 | [20] -0.044 | [13] -0.078 | [15] -0.119 | [17] 0.235

BNIP3L (UniProt O60238)
inactive: [1] -0.065 | [2] 0.045 | [4] -0.08 | [6] -0.173 | [7] 0.004 | [9] 0.106 | [11] 0.085 | [12] 0.152 | [13] 0.002 | [14] -0.141 | [15] -0.102 | [16] -0.075 | [17] 0.107 | [18] 0.25

BRD3 (UniProt Q15059)
active: [1] 1.63 | [19] 1.46 | [5] 0.681 | [12] -0.571
inactive: [2] -0.088 | [6] 0.073 | [7] -0.143 | [8] 0.106 | [9] 0.093 | [10] -0.116 | [13] 0.011 | [14] -0.319 | [15] -0.083 | [16] 0.325 | [17] 0.086 | [18] -0.128

AURKB isoform 5 (UniProt Q96GD4)
inactive: [1] 0.156 | [2] -0.095 | [6] -0.281 | [7] 0.353 | [9] -0.148 | [12] -0.117 | [14] 0.824 | [15] 0.418 | [16] 0.396 | [17] 0.225 | [18] 0.006

BCR (UniProt P11274)
inactive: [1] 0.095 | [19] -0.518 | [3] -0.235 | [4] 0.008 | [5] -0.021 | [20] -0.079 | [7] 0.401 | [8] 0.07 | [9] -0.052 | [10] -0.412 | [11] 0.152 | [12] 0.43 | [13] -0.01 | [15] 0.524 | [16] -0.001 | [17] 0.203

BPIFA1 (UniProt Q9NP55)
inactive: [1] -0.365 | [2] 0.787 | [20] -0.416 | [10] -0.024 | [15] 0.325 | [17] -0.242

BRAP (UniProt Q7Z569)
inactive: [1] -0.092 | [19] -0.23 | [2] 0.033 | [3] -0.093 | [5] 0.086 | [6] 0.02 | [7] 0.06 | [8] -0.158 | [9] -0.04 | [10] -0.198 | [12] 0.046 | [13] 0.057 | [14] -0.087 | [15] 0.076 | [16] -0.024 | [17] 0.042 | [18] -0.064

2 records drawn at random from those above:
B4GALT7 (UniProt Q9UBV7)
inactive: [1] 0.067 | [19] -0.085 | [3] 0.051 | [4] -0.064 | [5] -0.035 | [6] -0.06 | [20] 0.053 | [7] -0.117 | [8] -0.23 | [9] -0.029 | [10] 0 | [11] 0.051 | [12] 0.038 | [13] 0.061 | [14] -0.015 | [15] 0.054 | [16] -0.097 | [17] 0.058 | [18] -0.023

BCL2L11 (UniProt O43521)
inactive: [1] -0.111 | [2] -0.183 | [3] -0.102 | [4] 0.014 | [5] -0.174 | [6] -0.024 | [7] -0.063 | [8] -0.086 | [9] 0.068 | [10] -0.142 | [11] 0.09 | [12] -0.057 | [13] -0.025 | [14] -0.013 | [15] -0.028 | [16] -0.123 | [17] 0.035 | [18] 0.087

Source: the supplement of paper PMC10849652
